Reference: paper doi:10.1101/2020.10.21.348805 (bioRxiv, 2020)
No constants are given. Whether binding was seen depends on the method and setting. For part of these data: In cells and extracts the contact can be indirect. Some results given as binding are weak or reduced against the parent protein; the word gives no strength. For part of these data: Sequences can lack the tags named with a protein.

Tests used:
[1] = biological target: T1, OsDMI3 (pGBKT7-OsDMI3) (rice (Oryza sativa)) (UniProt Q6AVM3); experiment: two-hybrid
T1 sequence: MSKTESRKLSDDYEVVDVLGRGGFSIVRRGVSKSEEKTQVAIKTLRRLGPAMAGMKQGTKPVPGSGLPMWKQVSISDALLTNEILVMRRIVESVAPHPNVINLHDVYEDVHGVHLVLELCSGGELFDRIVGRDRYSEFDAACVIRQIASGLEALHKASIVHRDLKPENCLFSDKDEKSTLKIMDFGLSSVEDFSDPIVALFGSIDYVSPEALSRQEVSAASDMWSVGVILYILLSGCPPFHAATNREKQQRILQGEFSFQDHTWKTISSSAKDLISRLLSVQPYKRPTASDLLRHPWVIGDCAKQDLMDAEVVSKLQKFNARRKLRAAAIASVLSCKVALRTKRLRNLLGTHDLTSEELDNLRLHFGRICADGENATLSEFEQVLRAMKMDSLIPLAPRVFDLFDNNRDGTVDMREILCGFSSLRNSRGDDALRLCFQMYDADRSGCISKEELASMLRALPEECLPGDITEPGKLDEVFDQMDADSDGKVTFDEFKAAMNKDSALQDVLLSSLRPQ

[2] = biological target: T2, EF hands domain (337 to 516 amino acids) of OsDMI3, Y2H construct (rice (Oryza sativa)) (UniProt Q6AVM3); experiment: two-hybrid
T2 sequence: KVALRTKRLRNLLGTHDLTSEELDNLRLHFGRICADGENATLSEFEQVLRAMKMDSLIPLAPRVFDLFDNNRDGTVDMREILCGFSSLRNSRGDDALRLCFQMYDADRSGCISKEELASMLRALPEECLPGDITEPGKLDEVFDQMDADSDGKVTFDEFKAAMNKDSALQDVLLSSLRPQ

[3] = biological target: EF hands domain (337 to 516 amino acids) of OsDMI3, LCI construct (rice (Oryza sativa)) (UniProt Q6AVM3); experiment: split reporter
[4] = biological target: T3, OsDMI3 split-YFP fusion for BiFC (rice (Oryza sativa)) (UniProt Q6AVM3); experiment: split reporter
T3 sequence: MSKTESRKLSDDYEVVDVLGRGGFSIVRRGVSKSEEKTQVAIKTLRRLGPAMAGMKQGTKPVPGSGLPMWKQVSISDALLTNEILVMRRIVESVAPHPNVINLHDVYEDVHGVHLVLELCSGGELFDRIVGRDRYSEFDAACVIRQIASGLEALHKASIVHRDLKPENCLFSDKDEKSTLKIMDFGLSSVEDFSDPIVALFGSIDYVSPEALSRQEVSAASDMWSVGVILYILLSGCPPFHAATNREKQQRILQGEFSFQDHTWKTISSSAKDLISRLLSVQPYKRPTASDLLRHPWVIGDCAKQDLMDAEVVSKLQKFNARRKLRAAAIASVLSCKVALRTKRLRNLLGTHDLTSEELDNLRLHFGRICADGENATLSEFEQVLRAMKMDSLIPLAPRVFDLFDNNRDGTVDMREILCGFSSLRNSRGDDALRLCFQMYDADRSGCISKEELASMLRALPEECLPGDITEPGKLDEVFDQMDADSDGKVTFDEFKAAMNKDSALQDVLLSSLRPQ

[5] = biological target: T4, OsDMI3-Myc (rice (Oryza sativa)) (UniProt Q6AVM3); experiment: co-IP
T4 sequence: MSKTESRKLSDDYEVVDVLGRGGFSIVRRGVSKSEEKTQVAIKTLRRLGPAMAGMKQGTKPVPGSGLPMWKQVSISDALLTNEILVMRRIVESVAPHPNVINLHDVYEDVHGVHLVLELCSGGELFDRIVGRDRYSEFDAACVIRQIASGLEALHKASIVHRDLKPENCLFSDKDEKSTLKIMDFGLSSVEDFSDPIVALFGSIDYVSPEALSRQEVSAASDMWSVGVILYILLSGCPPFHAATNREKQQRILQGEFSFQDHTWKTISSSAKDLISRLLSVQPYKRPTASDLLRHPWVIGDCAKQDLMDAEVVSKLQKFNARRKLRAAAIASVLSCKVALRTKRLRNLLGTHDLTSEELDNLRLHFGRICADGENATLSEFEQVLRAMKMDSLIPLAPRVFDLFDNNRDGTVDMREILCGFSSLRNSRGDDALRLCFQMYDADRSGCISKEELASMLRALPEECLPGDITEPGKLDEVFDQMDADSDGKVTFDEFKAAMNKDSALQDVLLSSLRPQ

B1: OsMKK6 (pGADT7-OsMKK6) (enzyme, UniProt Q5QN75 1-355)
chain: MRGKKPHKELKLSVPAQETPVDKFLTASGTFKDGELRLNQRGLQLISEETADEPQSTNLKVEDVQLSMDDLEMIQVIGKGSGGIVQLVRHKWVGTLYALKGIQMNIQEAVRKQIVQELKINQATQNAHIVLCHQSFYHNGVIYLVLEYMDRGSLADIIKQVKTILEPYLAVLCKQVLEGLLYLHHERHVIHRDIKPSNLLVNRKGEVKITDFGVSAVLASSMGQRDTFVGTYNYMAPERISGSSYDYKSDIWSLGLVILECAIGRFPYIPSEGEGWLSFYELLEAIVDQPPPSAPADQFSPEFCAFISSCIQKDPAERMSASELLNHPFIKKFEDKDLDLRILVESLEPPMNISE
binding [1]: binds
binding [2]: binds

B2: OsMKK6, LCI construct (enzyme, UniProt Q5QN75 1-355)
chain: MRGKKPHKELKLSVPAQETPVDKFLTASGTFKDGELRLNQRGLQLISEETADEPQSTNLKVEDVQLSMDDLEMIQVIGKGSGGIVQLVRHKWVGTLYALKGIQMNIQEAVRKQIVQELKINQATQNAHIVLCHQSFYHNGVIYLVLEYMDRGSLADIIKQVKTILEPYLAVLCKQVLEGLLYLHHERHVIHRDIKPSNLLVNRKGEVKITDFGVSAVLASSMGQRDTFVGTYNYMAPERISGSSYDYKSDIWSLGLVILECAIGRFPYIPSEGEGWLSFYELLEAIVDQPPPSAPADQFSPEFCAFISSCIQKDPAERMSASELLNHPFIKKFEDKDLDLRILVESLEPPMNISE
binding [3]: binds

B3: N-terminus domain (1 to 71 amino acids) of OsMKK6, Y2H construct (domain or fragment, UniProt Q5QN75 1-71)
chain: MRGKKPHKELKLSVPAQETPVDKFLTASGTFKDGELRLNQRGLQLISEETADEPQSTNLKVEDVQLSMDDL
binding [1]: binds

B4: OsMKK6 split-YFP fusion for BiFC (enzyme, UniProt Q5QN75 1-355)
chain: MRGKKPHKELKLSVPAQETPVDKFLTASGTFKDGELRLNQRGLQLISEETADEPQSTNLKVEDVQLSMDDLEMIQVIGKGSGGIVQLVRHKWVGTLYALKGIQMNIQEAVRKQIVQELKINQATQNAHIVLCHQSFYHNGVIYLVLEYMDRGSLADIIKQVKTILEPYLAVLCKQVLEGLLYLHHERHVIHRDIKPSNLLVNRKGEVKITDFGVSAVLASSMGQRDTFVGTYNYMAPERISGSSYDYKSDIWSLGLVILECAIGRFPYIPSEGEGWLSFYELLEAIVDQPPPSAPADQFSPEFCAFISSCIQKDPAERMSASELLNHPFIKKFEDKDLDLRILVESLEPPMNISE
binding [4]: binds

B5: OsMKK6-Flag (enzyme, UniProt Q5QN75 1-355)
chain: MRGKKPHKELKLSVPAQETPVDKFLTASGTFKDGELRLNQRGLQLISEETADEPQSTNLKVEDVQLSMDDLEMIQVIGKGSGGIVQLVRHKWVGTLYALKGIQMNIQEAVRKQIVQELKINQATQNAHIVLCHQSFYHNGVIYLVLEYMDRGSLADIIKQVKTILEPYLAVLCKQVLEGLLYLHHERHVIHRDIKPSNLLVNRKGEVKITDFGVSAVLASSMGQRDTFVGTYNYMAPERISGSSYDYKSDIWSLGLVILECAIGRFPYIPSEGEGWLSFYELLEAIVDQPPPSAPADQFSPEFCAFISSCIQKDPAERMSASELLNHPFIKKFEDKDLDLRILVESLEPPMNISE
binding [5]: binds
